Data taken from publication PMC9217950.

Chains of the proteins cited; added tags and fusions are not shown.
UniProt Q00987: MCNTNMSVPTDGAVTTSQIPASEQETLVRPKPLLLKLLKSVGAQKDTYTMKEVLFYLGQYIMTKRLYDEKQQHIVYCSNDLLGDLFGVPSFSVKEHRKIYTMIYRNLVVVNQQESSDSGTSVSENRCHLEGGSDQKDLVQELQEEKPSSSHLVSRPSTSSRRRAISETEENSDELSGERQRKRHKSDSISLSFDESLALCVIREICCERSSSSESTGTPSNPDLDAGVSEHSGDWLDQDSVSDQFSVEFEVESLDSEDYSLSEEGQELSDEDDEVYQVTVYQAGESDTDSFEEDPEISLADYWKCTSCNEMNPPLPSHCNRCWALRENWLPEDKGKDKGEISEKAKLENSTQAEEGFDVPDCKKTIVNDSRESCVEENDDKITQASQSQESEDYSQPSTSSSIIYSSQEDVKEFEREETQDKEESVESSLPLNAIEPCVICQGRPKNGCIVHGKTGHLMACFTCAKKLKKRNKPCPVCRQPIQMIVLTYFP
UniProt P25963: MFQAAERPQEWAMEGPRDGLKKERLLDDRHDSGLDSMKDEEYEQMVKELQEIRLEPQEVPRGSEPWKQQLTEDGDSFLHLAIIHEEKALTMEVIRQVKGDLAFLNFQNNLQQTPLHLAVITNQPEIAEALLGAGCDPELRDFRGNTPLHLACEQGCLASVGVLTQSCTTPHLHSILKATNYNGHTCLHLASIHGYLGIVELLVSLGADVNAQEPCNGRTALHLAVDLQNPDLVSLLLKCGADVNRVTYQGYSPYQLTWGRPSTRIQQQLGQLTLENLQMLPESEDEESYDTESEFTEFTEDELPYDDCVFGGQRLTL

Key:
FLAG-GST-EFHC2 (human) = molecular target: T1, FLAG-GST-EFHC2 (human) (UniProt Q5JST6); assay: proximity labelling; CF-PPiD on the diversity protein array: 118 FG-tagged human proteins on glutathione magnetic beads, 1536-well plate, 1x and 3x dual spots; translational mixture of AirID, AirID-TP53 or AirID-IκBα with biotin and ATP; HRP-conjugated anti-biotin antibody; only the target purified
T1 sequence: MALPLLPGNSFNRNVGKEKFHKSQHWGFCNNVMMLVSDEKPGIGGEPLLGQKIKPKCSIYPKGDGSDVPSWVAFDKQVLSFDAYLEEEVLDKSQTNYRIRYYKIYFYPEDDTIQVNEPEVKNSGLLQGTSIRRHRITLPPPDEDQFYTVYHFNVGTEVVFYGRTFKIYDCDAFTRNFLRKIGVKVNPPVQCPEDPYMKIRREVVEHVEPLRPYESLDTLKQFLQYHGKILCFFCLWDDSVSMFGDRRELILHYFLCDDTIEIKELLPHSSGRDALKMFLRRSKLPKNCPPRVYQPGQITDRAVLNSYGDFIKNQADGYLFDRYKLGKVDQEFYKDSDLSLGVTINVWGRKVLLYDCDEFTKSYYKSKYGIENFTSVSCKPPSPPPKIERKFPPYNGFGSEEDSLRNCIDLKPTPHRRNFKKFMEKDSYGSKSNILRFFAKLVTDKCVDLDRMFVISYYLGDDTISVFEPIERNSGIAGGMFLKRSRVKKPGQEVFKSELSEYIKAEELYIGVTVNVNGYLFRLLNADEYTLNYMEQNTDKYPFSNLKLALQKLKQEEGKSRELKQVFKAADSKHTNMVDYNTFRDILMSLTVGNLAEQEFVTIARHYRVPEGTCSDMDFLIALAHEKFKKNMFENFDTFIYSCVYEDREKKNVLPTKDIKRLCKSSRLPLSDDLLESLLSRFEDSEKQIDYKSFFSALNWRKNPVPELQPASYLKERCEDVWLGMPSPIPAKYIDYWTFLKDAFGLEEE

FLAG-GST-LATS2 (human) = molecular target: T2, FLAG-GST-LATS2 (human) (UniProt Q9NRM7); assay: as above
T2 sequence: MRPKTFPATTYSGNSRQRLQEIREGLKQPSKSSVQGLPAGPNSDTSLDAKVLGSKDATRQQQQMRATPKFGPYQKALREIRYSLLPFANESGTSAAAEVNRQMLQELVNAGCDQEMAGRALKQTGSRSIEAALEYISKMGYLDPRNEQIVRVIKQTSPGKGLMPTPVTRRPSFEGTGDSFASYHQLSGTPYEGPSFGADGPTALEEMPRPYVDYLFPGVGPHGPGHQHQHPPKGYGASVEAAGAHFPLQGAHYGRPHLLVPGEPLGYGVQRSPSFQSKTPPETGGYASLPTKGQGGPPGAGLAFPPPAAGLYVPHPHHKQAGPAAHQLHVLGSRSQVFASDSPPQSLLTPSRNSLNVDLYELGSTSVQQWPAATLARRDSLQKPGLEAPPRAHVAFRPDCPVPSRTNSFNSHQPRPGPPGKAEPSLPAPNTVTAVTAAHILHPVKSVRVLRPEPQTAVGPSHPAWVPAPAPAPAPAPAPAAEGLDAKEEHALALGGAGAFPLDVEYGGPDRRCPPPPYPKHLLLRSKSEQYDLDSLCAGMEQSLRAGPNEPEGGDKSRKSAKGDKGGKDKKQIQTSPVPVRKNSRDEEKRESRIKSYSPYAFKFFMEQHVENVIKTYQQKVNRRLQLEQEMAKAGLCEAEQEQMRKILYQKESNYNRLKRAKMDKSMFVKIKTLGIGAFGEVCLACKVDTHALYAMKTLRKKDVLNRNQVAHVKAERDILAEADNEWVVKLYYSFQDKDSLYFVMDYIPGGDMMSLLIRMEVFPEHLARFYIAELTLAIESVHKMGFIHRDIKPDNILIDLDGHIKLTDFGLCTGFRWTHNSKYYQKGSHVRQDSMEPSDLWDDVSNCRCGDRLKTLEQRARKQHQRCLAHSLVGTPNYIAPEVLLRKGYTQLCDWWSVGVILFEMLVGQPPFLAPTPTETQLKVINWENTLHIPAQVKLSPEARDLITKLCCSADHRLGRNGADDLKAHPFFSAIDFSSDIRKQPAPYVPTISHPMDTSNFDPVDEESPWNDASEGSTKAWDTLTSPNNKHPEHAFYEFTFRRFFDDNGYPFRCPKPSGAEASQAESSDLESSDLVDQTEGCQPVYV

FLAG-GST-Mdm2 (human) = FLAG-GST-Mdm2 (human) (UniProt Q00987); assay: proximity labelling; CF-PPiD, model set: FG-proteins captured on glutathione magnetic beads on a 1536-well magnetic plate; translational mixture of AirID-fused protein with 5 mM D-biotin and 1 mM ATP in PBS, room temperature (approximately 25 °C), 1–24 h (normally 3 h); wash with PBS, 0.5 M NaCl, 1% Triton X-100; HRP-conjugated anti-biotin antibody; only the target purified

binding (FLAG-GST-EFHC2 (human)): binds
binding (FLAG-GST-LATS2 (human)): no binding
binding (FLAG-GST-Mdm2 (human)): no binding
Substance: AirID N-terminally fused to IκBα (from UniProt P25963 1-317)

Results are given in words; binding and its absence hold for the method and conditions named. Binding seen in cells or lysates may run through a third protein. A yes stands for co-enrichment or nearness to the bait. Other partners may have been found. For part of these data: No binding means not detected with the bait. For part of these data: Tags and fused reporters may be left off the sequences shown.
